Hit rate of the full screen: of about 580,000 compounds, about 6,100 (1.1%) were called active. The inconclusive results got no clear call from the source; some entries with a clear call stand among them for comparison. Calls follow the shape of the dose curve; as a rule, active = well fitted inhibition curve with a large enough effect; inconclusive = small, poorly fitted or top-dose-only effect, or another doubt; inactive = no such curve, though single readings can be large or run the other way. Potencies beside an inconclusive call are fits to weak or partial responses and may not hold up.
Target: Polyunsaturated fatty acid lipoxygenase ALOX12 (Homo sapiens) (UniProt P18054)
Assay: Primary qHTS assay for inhibitors of human arachidonate 12S-lipoxygenase (ALOX12): Round 2
Settings: purified 12hLO, xylenol orange hydroperoxide absorbance; activity change, negative = inhibition: at 108 µM (top of the series) unless noted
Method in brief: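 Purified human 12hLO at 150 nM in 25 mM Hepes, 0.01% Triton X-100, pH 7.0, preincubated 15 min at room temperature with compound. Reaction started with 40 uM arachidonic acid, 30 min at room temperature. Hydroperoxide measured by Fe-xylenol orange, 573/405 nm absorbance ratio.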
% is scaled to controls: 0 for no effect and ±100 for the full control effect; potency is read from the fitted curve at half-maximal effect.

By UniProt entry, the sequences of proteins in these tests, tags left out.
UniProt P18054, whole entry, looked up: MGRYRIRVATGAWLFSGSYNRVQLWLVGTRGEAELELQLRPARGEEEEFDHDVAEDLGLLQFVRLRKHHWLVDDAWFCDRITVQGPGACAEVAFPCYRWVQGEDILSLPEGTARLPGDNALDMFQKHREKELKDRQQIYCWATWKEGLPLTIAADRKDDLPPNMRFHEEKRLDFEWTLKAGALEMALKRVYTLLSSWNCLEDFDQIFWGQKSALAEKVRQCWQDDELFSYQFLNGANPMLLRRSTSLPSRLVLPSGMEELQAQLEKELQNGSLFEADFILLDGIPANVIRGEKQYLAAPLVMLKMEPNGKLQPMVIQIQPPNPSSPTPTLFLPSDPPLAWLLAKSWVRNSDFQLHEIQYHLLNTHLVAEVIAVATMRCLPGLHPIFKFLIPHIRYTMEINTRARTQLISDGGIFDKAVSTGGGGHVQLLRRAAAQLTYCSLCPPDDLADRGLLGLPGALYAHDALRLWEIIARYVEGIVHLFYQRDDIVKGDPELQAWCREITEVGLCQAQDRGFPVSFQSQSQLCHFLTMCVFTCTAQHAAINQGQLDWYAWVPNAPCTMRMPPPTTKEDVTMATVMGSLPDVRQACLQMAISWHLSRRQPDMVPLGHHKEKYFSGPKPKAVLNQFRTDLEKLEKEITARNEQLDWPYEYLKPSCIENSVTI

Structure (SMILES)	Potency	activity change, negative = inhibition
CC(C)N(C(=O)CSc1nc2ccc(Cl)cc2[nH]1)c1ccccc1	inconclusive: 89.1 µM [inhibitor, partial curve, poor fit]	
COc1ccc2c(CN(C)CCOc3cccc(Cl)c3)cc(=O)oc2c1	inconclusive: 89.1 µM [inhibitor, partial curve, poor fit]	
CCCS(=O)(=O)N1CCCC(c2[nH]ccc2C(N)=O)C1 (centres undefined)	inactive	
S=C(NCc1ccc(Cl)cc1)NC1CCCC1	active: 39.8 µM	
CN1CC(=O)N(C2CCCNCC2)Cc2c(NCCc3ccccc3F)ncnc21 (centres undefined)	inconclusive: 7.94 µM [inhibitor, full curve, poor fit]	
CCOC(=O)Cn1c2c(c(-c3ccccc3OC)cc1=O)CCCC2	inactive	
O=c1oc2ccc(Br)cc2cc1-c1csc(Nc2c(F)cccc2F)n1	inconclusive: 39.8 µM [inhibitor, partial curve, poor fit]	
COc1ccc(-c2cc(N3CCCN(C(=O)c4cccc(Br)c4)CC3)n[nH]2)cc1	inactive	
CN1CCC(N2C[C@H](O)C[C@H]2c2nc(CS(=O)(=O)c3ccc(F)cc3)no2)CC1	inconclusive: 8.91 µM [inhibitor, full curve, poor fit]	
COc1ccccc1NC(=S)NC1CCCCCC1	inconclusive: 44.7 µM [inhibitor, partial curve, poor fit]	
Cc1cccc(NC(=O)c2oc(=O)c3ccccc3c2-c2ccccc2)c1C	inconclusive: 1.78 µM [inhibitor, full curve, poor fit]	
CCCCn1cnc2c1c(=O)n(CC(=O)Nc1cccc(Cl)c1)c(=O)n2CCC	inactive	
Cc1ccc(CN(C)C[C@@H]2OCc3cnnn3CCCC(=O)N([C@@H](C)CO)C[C@H]2C)cc1	inconclusive: 2.82 µM [inhibitor, full curve, poor fit]	
CC(Sc1ncnc2ccccc12)C(=O)Nc1cc(Cl)cc(Cl)c1 (centres undefined)	inactive	
O=C(Nc1ccccc1C(=O)O)c1cccc(NC(=O)c2ccc(Br)o2)c1	inactive	
CCCn1c(C)cc(C(=O)COC(=O)Cn2cnc3c2c(=O)n(C)c(=O)n3C)c1C	inconclusive: 2.51 µM [inhibitor, full curve, poor fit]	
CCOc1ccc(Cl)cc1C1=CC(=O)C[C@H](c2ccc(OC)cc2)C1	inactive	
COc1ccccc1N1CCN(CC(=O)Nc2nccs2)CC1	active: 20 µM	
CCOC(=O)C(Cc1ccc(N)cc1)N1C(=O)c2ccccc2C1=O (centres undefined)	inconclusive: 28.2 µM [inhibitor, single point]	
CCN(CC)S(=O)(=O)c1ccc(C)c(NC(=S)N2CCN(c3ccccn3)CC2)c1	inactive	
CC(C)n1c(SCCC(=O)O)nc2c1c(=O)[nH]c(=O)n2C	inconclusive: 39.8 µM [inhibitor, partial curve, poor fit]	
O=C1CCN(C(=O)c2cccc3[nH]ccc23)CCCCCCN1	inactive	
CC(C(=O)c1ccc(Cl)cc1)C1(O)C(=O)Nc2ccccc21 (centres undefined)	inconclusive: 6.31 µM [inhibitor, full curve]	

Structure (SMILES)	Potency	activity change, negative = inhibition
CCCCC1NC(=S)N(C2CCCCC2)C1=O (centres undefined)	inactive	
COc1ccc(CCNC(=O)CSc2nc(C)nc3c2oc2ccccc23)cc1OC	inactive	
C#CC1(O)CCC2C3CCc4cc(O)cc(C)c4C3CCC21C (centres undefined)	inconclusive: 44.7 µM [inhibitor, partial curve, poor fit]	
Cc1ccc2oc(=O)n(CC(=O)N3CCOCC3)c2c1		inconclusive: -38% [inhibitor]
CCOc1cc(-c2nnc(SCC(=O)Nc3ccc(F)c(F)c3)nc2-c2ccc(OC)c(OCC)c2)ccc1OC	inconclusive: 35.5 µM [inhibitor, partial curve, poor fit]	
CCN(C[C@H]1N[C@@](CC)(C(=O)OC)[C@H]2C(=O)N(C)C(=O)[C@@H]12)C(=O)Nc1ccc(Cl)cc1	inconclusive: 39.8 µM [inhibitor, partial curve, poor fit]	
CCC(=O)Nc1nnc(SCc2cc(=O)c3cc(C)ccc3[nH]2)s1	inconclusive: 14.1 µM [inhibitor, full curve, poor fit]	
Cc1csc(NC(=O)CSCc2c(C)noc2C)n1	inconclusive: 35.5 µM [inhibitor, single point]	
Cc1ccc(S(=O)(=O)N2CCC(=O)N(C(COCc3cccc(C)c3)C(C)C)CC2)cc1 (centres undefined)	inconclusive: 89.1 µM [inhibitor, partial curve, poor fit]	
Cc1cccc(N2CCN(C(=O)C3CC(=O)N(c4ccc5c(c4)OCCO5)C3)CC2C)c1 (centres undefined)	inconclusive: 79.4 µM [inhibitor, partial curve, poor fit]	
O=C(Nc1cccc(-c2nc3ccccc3o2)c1)c1ccc(-c2ccc(Br)cc2)o1		inconclusive: -32.2% [inhibitor]
C=CCNC(=O)CN1CCN(C(c2ccccc2)c2ccccc2)CC1	inconclusive: 1.78 µM [inhibitor, full curve]	
COC(=O)c1ccc(NC(=O)Cn2c(C)cc3nc4n(c(=O)c32)CCC4)cc1	inactive	
COc1ccccc1N1CCN(CC(O)COc2ccc3c(c2)OCO3)CC1 (centres undefined)	inconclusive: 56.2 µM [inhibitor, partial curve, poor fit]	
OC(c1cccnc1)c1nc(-c2ccc3c(c2)OCO3)cs1 (centres undefined)	inconclusive: 39.8 µM [inhibitor, partial curve, poor fit]	
Cc1ccc(CN(C)C(=O)Cc2c[nH]c3ccccc23)cc1	inactive	
Cc1cc2ncc(C(=O)NC3CCCCCC3)cn2n1	inactive	
O=C(Nc1cccc(-n2cccn2)c1)C1CCCN1C(=O)C1CCCCC1 (centres undefined)	inactive	
CC(C)(C(=O)NCC(c1ccccc1)N1CCCC1)c1ccccc1 (centres undefined)	inactive	
C[C@H](O)[C@@H]1C(=O)N2CCc3c([nH]c4cccc(-c5ccccc5)c34)[C@@H]2C[C@@H]1N(C)C(=O)OCc1ccccc1	inconclusive: 79.4 µM [inhibitor, single point]	
CCOC(=O)c1c[nH]c(=S)n1C	inconclusive: 112 µM [inhibitor, single point]	
Cc1ccc(S(=O)(=O)N2CCOCC2)s1	inactive	
COC(=O)c1cnc(Oc2ccc(NC(=O)NC(=O)c3ccccc3Cl)cc2)cc1C(F)(F)F	inactive	

Structure (SMILES)	Potency	activity change, negative = inhibition
CCc1ccccc1N/N=C(/C)c1c(O)cc(C)oc1=O	inconclusive: 15.8 µM [inhibitor, partial curve, poor fit]	
O=S(CCCOc1ccc(F)cc1)Cc1ccccc1 (centres undefined)	inactive	
CCN(CC)CCNC(=O)C(Cl)=C1C(Cl)=C(Cl)C(Cl)=C1Cl	inconclusive: 56.2 µM [inhibitor, partial curve, poor fit]	
CCc1cccc(NC(=O)CSc2ncc(-c3ccc(F)cc3)o2)c1	inconclusive: 112 µM [inhibitor, single point]	
COc1cc(/C=C/c2cccc[n+]2C)ccc1OCC(=O)Nc1cccc(Cl)c1	inconclusive: 44.7 µM [inhibitor, partial curve, poor fit]	
COC(=O)C1=C(C)N(Cc2ccc(F)cc2)C(=S)NC1c1ccc(Cl)cc1 (centres undefined)	active: 39.8 µM	
CC(=O)N1CCc2c(sc3c2c(=O)n(-c2ccccc2)c(=O)n3CC(=O)Nc2cccc(C)c2)C1	inconclusive: 112 µM [inhibitor, partial curve, poor fit]	
CCCCCCc1ccc(-c2ccc(C(=O)OCC)cc2)nc1	inactive	
COc1ccc(N2CCN(Cc3nc4c(c(=O)[nH]c(=O)n4C)n3Cc3cccc(Cl)c3)CC2)cc1	inconclusive: 89.1 µM [inhibitor, single point]	
O=C(NNC(=S)Nc1cccc(C(F)(F)F)c1)c1cccc(Cl)c1	inconclusive: 44.7 µM [inhibitor, partial curve, poor fit]	
CCCCc1ccc(NC(=O)CSc2nc(=O)n(CCN(CC)CC)c3c2CCCC3)cc1	inconclusive: 35.5 µM [inhibitor, partial curve, poor fit]	
Cc1ccc(C(=O)Oc2cccc(C)c2C)cc1Br	inactive	
FC(F)(F)c1ccc2c(c1)NCC1CCCN21 (centres undefined)	inactive	
COC(=O)C1=C(C)N(Cc2ccc(F)cc2)C(=S)NC1c1cccc(Cl)c1 (centres undefined)	active: 39.8 µM	
CC(C)CNC(=O)c1cc(C2CC2)nc2onc(C3CCNC3)c12 (centres undefined)	inconclusive: 3.16 µM [inhibitor, single point]	
Cc1nc(NS(=O)(=O)c2ccccc2)sc1NC(=O)Nc1ccc(Cl)cc1	active: 39.8 µM	
CCOC(=O)c1c(C)[nH]c(NC(=O)Nc2ccc(-c3ccccc3)cc2)c1C	inconclusive: 44.7 µM [inhibitor, partial curve, poor fit]	
O=c1[nH]c(=O)n(Cc2ccccc2Cl)c2c1CN(Cc1ccccc1)CN2	inactive	
C=Cc1ccc(Cn2c(C)c(CNCc3cccc(Br)c3)c(C(=O)O)c2C)cc1	inconclusive: 89.1 µM [inhibitor, partial curve, poor fit]	
Cc1ccc(CC(C)(O)CC(C)(O)Cc2ccc(C)cc2)cc1 (centres undefined)	inconclusive: 56.2 µM [inhibitor, partial curve, poor fit]	
COc1cc(NC(=O)C2=CCN(Cc3ccccc3F)CC2)cc(OC)c1OC	inactive	
Cc1ccc(-n2c(CC#N)n[nH]c2=S)c(C)c1	inconclusive: 112 µM [inhibitor, partial curve, poor fit]	
CCn1c(CNC(=O)c2ccc(OC)cc2)nnc1SCC(=O)c1ccccc1	inconclusive: 0.562 µM [inhibitor, full curve, poor fit]	

A second format for 4 compounds above.
COc1cc(/C=C/c2cccc[n+]2C)ccc1OCC(=O)Nc1cccc(Cl)c1
  Potency: inconclusive: 44.7 µM [inhibitor, partial curve, poor fit]
CC(=O)N1CCc2c(sc3c2c(=O)n(-c2ccccc2)c(=O)n3CC(=O)Nc2cccc(C)c2)C1
  Potency: inconclusive: 112 µM [inhibitor, partial curve, poor fit]
CCOC(=O)c1c(C)[nH]c(NC(=O)Nc2ccc(-c3ccccc3)cc2)c1C
  Potency: inconclusive: 44.7 µM [inhibitor, partial curve, poor fit]
Cc1ccc(CC(C)(O)CC(C)(O)Cc2ccc(C)cc2)cc1 (centres undefined)
  Potency: inconclusive: 56.2 µM [inhibitor, partial curve, poor fit]

From PubChem BioAssay AID1671190 (National Center for Advancing Translational Sciences (NCATS), 2021)
